# Measurements reported in publication PMC6168860, “Dual Role of a Viral Polymerase in Viral Genome Replication and Particle Self-Assembly” (mBio, 2018).
# Results are given in words; binding and its absence hold for the method and conditions named. Some results given as binding are weak or reduced against the parent protein; the word gives no strength. Where a sequence is shown, tags or fusion partners need not be part of it.
# B1: Φ6 P2 surface mutant HERW (histidine-tagged) (enzyme, Pseudomonas phage Φ6, UniProt P11124 1-665, looked up)
# chain: MPRRAPAFPLSDIKAQMLFANNIKAQQASKRSFKEGAIETYEGLLSVDPRFLSFKNELSRYLTDHFPANVDEYGRVYGNGVRTNFFGMRHMNGFPMIPATWPLASNLKKRADADLADGPVSERDNLLFRAAVRLMFSDLEPVPLKIRKGSSTCIPYFSNDMGTKIEIAERALEKAEEAGNLMLQGKFDDAYQLHQMGGAYYVVYRAQSTDAITLDPKTGKFVSKDRMVADFEYAVTGGEQGSLFAASKDASRLKEQYGIDVPDGFFCERRRTAMGGPFALNAPIMAVAQPVRNKIYSKYAYTFHHTTRLNKEEKVKEWSLCVATDVSDHDTFWPGWLRDLICDELLNMGYAPWWVKLFETSLKLPVYVGAPAPEQGHTLLGDPSNPDLEVGLSSGQGATDLMGTLLMSITYLVMQLDHTAPHLNSRIKDMPSACRFLDSYWQGAQEIRQISKSDDAILGWTKGRALVGGHALFEMLKEGKVNPSPYMKISYEHGGAFLGDILLYDSRREPGSAIFVGNINSMLNNQFSPEYGVQSGVRDRSKRKRPFPGLAWASMKDTYGACPIYSDVLEAIERCWANAFGESYRAYREDMLKRDTLELSRYVASMARQAGLAELTPIDLEVLADPNKLQYKWTEADVSANIHEVLMHGVSVEKTERFLRSVMPR
# notes: source: E. coli BL21(DE3), plasmid pXS30, purified as described for N-terminally histidine-tagged P2; not shown: His6, C-terminal, kept
# Target: T1, Pseudomonas phage Φ6 major capsid protein P1 (Pseudomonas phage Φ6) (UniProt P11126)
# T1 sequence: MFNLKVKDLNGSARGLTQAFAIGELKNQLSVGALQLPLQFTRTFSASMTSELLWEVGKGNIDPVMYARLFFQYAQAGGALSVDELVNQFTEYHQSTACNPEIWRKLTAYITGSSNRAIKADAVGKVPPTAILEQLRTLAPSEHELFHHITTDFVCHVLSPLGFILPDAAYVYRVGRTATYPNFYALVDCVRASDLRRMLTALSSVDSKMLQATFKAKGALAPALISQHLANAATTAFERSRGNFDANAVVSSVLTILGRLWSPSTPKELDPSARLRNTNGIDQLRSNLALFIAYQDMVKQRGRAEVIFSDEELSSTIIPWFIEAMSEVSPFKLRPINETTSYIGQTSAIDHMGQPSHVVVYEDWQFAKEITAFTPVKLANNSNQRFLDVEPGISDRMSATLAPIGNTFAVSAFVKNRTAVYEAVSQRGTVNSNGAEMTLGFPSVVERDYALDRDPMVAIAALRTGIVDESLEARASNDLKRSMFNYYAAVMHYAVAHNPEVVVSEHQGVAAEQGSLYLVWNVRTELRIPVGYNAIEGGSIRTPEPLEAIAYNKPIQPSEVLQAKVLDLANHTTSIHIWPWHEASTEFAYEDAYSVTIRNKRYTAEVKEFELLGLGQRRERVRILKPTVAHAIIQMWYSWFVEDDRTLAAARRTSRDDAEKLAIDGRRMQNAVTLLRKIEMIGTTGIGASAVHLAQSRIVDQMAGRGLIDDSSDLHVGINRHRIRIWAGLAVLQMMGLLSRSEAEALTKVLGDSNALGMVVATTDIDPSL
# Assay: co-sedimentation; in vitro self-assembly of purified P1, P4 (120:72) and P2 or P2 variant at 1×P2 (P1:P2 120:12), no P7; room temperature, 90 min, 250 to 350 mM NaCl, 20 mM Tris pH 8.0, 6% PEG 4000; rate-zonal centrifugation in 10% to 30% sucrose, P2 copies per particle from SDS-PAGE; both purified
binder,measurement,value
B1,binding,binds weakly
